# In PubChem BioAssay AID504327 (National Center for Advancing Translational Sciences (NCATS), 2011):
# Amino acid sequences for entries named in this document (tags omitted).
# UniProt Q92830, whole entry, looked up: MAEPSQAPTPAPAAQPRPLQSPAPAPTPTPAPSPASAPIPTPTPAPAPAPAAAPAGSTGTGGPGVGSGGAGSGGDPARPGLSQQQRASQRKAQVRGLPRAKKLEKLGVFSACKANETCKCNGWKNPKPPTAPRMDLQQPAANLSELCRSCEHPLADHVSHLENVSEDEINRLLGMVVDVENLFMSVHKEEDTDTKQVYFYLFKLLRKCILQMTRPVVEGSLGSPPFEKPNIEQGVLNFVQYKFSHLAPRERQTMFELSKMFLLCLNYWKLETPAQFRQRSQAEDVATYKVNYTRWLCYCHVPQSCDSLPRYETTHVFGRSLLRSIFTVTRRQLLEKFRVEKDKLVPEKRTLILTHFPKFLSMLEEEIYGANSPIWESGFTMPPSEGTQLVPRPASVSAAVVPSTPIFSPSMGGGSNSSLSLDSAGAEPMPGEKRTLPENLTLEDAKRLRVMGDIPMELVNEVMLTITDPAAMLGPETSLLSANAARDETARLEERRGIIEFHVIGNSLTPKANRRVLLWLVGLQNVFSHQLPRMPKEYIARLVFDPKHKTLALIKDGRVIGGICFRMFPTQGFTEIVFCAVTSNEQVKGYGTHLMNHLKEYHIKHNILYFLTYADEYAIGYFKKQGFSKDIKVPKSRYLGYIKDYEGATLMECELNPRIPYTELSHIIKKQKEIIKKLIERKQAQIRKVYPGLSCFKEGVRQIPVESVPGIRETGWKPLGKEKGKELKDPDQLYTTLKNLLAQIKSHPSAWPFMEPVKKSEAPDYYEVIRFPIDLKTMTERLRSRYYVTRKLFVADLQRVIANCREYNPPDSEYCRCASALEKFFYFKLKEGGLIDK
# Among all 390,000 compounds or so, about 820 (0.21%) were called active. Inconclusive results, whose numbers are uncertain, are shown with a selection of clear calls. Calls follow the shape of the dose curve; as a rule, active = well fitted inhibition curve with a large enough effect; inconclusive = small, poorly fitted or top-dose-only effect, or another doubt; inactive = no such curve, though single readings can be large or run the other way. A potency beside an inconclusive call is a rough fit, not a confirmed value.
# Molecular target: Histone acetyltransferase KAT2A (Homo sapiens) (UniProt Q92830)
# Assay: qHTS Assay for Inhibitors of GCN5L2
# Conditions: GCN5L2 HAT assay, ThioGlo1 CoA-SH fluorescence; activity change, negative = inhibition: at 58.9 µM (top of the series) unless noted
# Summary of the method: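 GCN5L2 (20nM final) in 50mM HEPES, 0.1mM EDTA pH 7.5, 0.01% Tween-20 was preincubated 15 min at room temperature with compound, then given ThioGlo1 (50uM), H3(1-25) peptide (75uM) and acetyl-CoA (70uM); CoA-thiol fluorescence (Ex340/Em540) was read at 0 and 20 min.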
# % is scaled to controls: 0 for no effect and ±100 for the full control effect; potency is read from the fitted curve at half-maximal effect.
SMILES,Potency,"activity change, negative = inhibition"
COc1ccc(S(=O)(=O)N(C)CC(=O)N2CCCCCC2)cc1OC,"inconclusive: 0.141 µM [inhibitor, full curve, poor fit]",–
Cc1nc(N2CCCC2)c2c(C(=O)N3CCN(c4cc(Cl)ccc4C)CC3)c(C)oc2n1,inactive,–
CCCCCCCCCCCCC/C=C/[C@@H](O)[C@H](CO)N(C)C,inactive,–
Clc1ccc(-n2c(Cc3ccccc3)nnc2SCc2nc(-c3cccs3)no2)cc1,inactive,–
COC(=O)c1ccc(OCC(O)CN2CCN(CC(O)COc3ccc(C(=O)OC)cc3)CC2)cc1 (stereo not drawn),"inconclusive: 5.01 µM [inhibitor, full curve, poor fit]",–
COc1ccccc1CNCc1cc(OC)c(OC)cc1OC,inactive,–
Cc1noc(C)c1-c1cncnc1NCCN1CCOCC1,inactive,–
Brc1ccc(C2=N[C@@H](Cc3ccccc3)CO2)cc1,"inconclusive: 31.6 µM [inhibitor, partial curve, poor fit]",–
CCN(CC)c1ccc(C2Nc3ccccc3-c3cc(C)nn32)cc1 (stereo not drawn),inactive,–
Nc1c(S(=O)(=O)O)cc(Nc2ccc(Nc3nc(Cl)nc(Nc4ccc(S(=O)(=O)O)cc4)n3)c(S(=O)(=O)O)c2)c2c1C(=O)c1ccccc1C2=O,active: 20 µM,–
COc1ccc(Oc2ncc3nc(-c4ccc(OC)cc4)c(=O)n(Cc4cccs4)c3n2)cc1,"inconclusive: 15.8 µM [inhibitor, partial curve]",–
CC1(C(=O)O)CCC(C(=O)Nc2cccc(F)c2)C1(C)C (stereo not drawn),"inconclusive: 3.16 µM [inhibitor, partial curve]",–
Cc1ccc(/C=N/n2c(-c3ccncc3)n[nH]c2=S)cc1,"inconclusive: 39.8 µM [inhibitor, single point]",–
O=C1C2C3C=CC(C4CC34)C2C(=O)N1/N=C/c1ccc(-c2ccc(F)cc2[N+](=O)[O-])o1 (stereo not drawn),inactive,–
COc1ccc(OCc2cc(C(=O)N3CCC(c4ccccc4)CC3)no2)c(Cl)c1,"inconclusive: 20 µM [inhibitor, single point]",–
COc1ccc(C)cc1NC(=O)CSc1nnc(COc2ccc(Cl)cc2)n1Cc1ccco1,inactive,–
O=C(NC(=S)Nc1ccc2c(c1)OCCO2)c1ccccc1,inactive,–
CCCCC[C@H](O)/C=C/[C@H]1CCC(=O)[C@@H]1CCCCCCC(=O)N1CCCCC1CO (stereo partly drawn),"inconclusive: 10 µM [inhibitor, partial curve, poor fit]",–
CCOC(=O)C1CCN(C(=O)COC(=O)c2ccc3c(c2)C(=O)N(c2ccc(OCC)cc2)C3=O)CC1,inactive,–
CNc1cc(NS(=O)(=O)c2ccc(N)cc2)nc(NC)n1,"inconclusive: 39.8 µM [inhibitor, single point]",–
COc1ccc(/C=C2\SC(=S)N(CCCCCC(=O)Nc3cc(C)on3)C2=O)cc1OC,"inconclusive: 12.6 µM [inhibitor, partial curve]",–
COc1cc(NC(=O)C2CCN(S(=O)(=O)c3cccc4nonc34)CC2)cc(OC)c1,"inconclusive: 39.8 µM [inhibitor, single point]",–
CCCN(C(=O)CCOc1ccc(C(C)(C)C)cc1)c1c(N)n(Cc2ccccc2)c(=O)[nH]c1=O,"inconclusive: 25.1 µM [inhibitor, single point]",–

SMILES,Potency,"activity change, negative = inhibition"
COc1ccc(NC(=O)N2CCc3ccccc3C2)cc1,"inconclusive: 0.1 µM [inhibitor, full curve, poor fit]",–
CCc1ccc(S(=O)(=O)NC(=S)Nc2ccccc2)cc1,inactive,–
N#Cc1c(C#N)c(-c2ccccc2)n(-c2ccccc2)c1N,inactive,–
COc1ccc(/C=C(/NC(=O)c2ccccc2OC)C(=O)Nc2ccc(C(=O)O)cc2)cc1,"inconclusive: 7.08 µM [inhibitor, full curve, poor fit]",–
O=C(NCC(c1cccnc1)N1CCOCC1)Nc1ccccc1 (stereo not drawn),"inconclusive: 39.8 µM [inhibitor, single point]",–
Cc1cccc(NC(=O)C2CCN(S(=O)(=O)c3cccc4nsnc34)CC2)n1,"inconclusive: 39.8 µM [inhibitor, single point]",–
Oc1ccc(Nc2nc(-c3ccc(Cl)cc3)cs2)cc1,"inconclusive: 39.8 µM [inhibitor, single point]",–
CCOC(=O)Cc1csc(/C(=N/O)C(N)=O)n1,inactive,–
CCCCC[C@H](O)/C=C/[C@H]1C=CC(=O)[C@@H]1C/C=C\CCCC(=O)O,"inconclusive: 28.2 µM [inhibitor, partial curve]",–
CCOCCc1nnc(NC(=O)Cc2ccccc2)s1,"inconclusive: 0.126 µM [inhibitor, full curve, poor fit]",–
COc1cc(OC)c(NC(=O)C2=C(C)C(=O)OC23CCCCCC3)cc1Cl,inactive,–
O=S(=O)(/N=C(/c1ccccc1)N1CCOCC1)c1ccc(Br)cc1,"inconclusive: 5.01 µM [inhibitor, single point]",–
Cc1cc(S(=O)(=O)NCC(c2ccc3c(c2)OCO3)N2CCOCC2)ccc1F (stereo not drawn),"inconclusive: 0.794 µM [inhibitor, full curve, poor fit]",–
CCOc1ccc(-c2nc(CS(=O)(=O)CC(=O)NCc3ccc(F)cc3)c(C)o2)cc1,"inconclusive: 2.82 µM [inhibitor, partial curve]",–
COc1ccc(S(=O)(=O)Nc2ccc(Cl)cn2)c(C)c1C,"inconclusive: 0.141 µM [inhibitor, full curve, poor fit]",–
Cc1cc(C)n(-c2cc(N3CCN(C(=O)c4ccc(C(C)(C)C)cc4)CC3)ccc2[N+](=O)[O-])n1,"inconclusive: 0.891 µM [inhibitor, single point]",–
O=C(Nc1ccccc1)O/N=C/c1ccccc1Cl,–,inconclusive: -108% [inhibitor] [at 0.501 µM]
CCCNC(=O)C1CC(=O)N(c2ccc(OCc3ccc(F)cc3)cc2)C1 (stereo not drawn),"inconclusive: 2.82 µM [inhibitor, partial curve, poor fit]",–
Cc1ccc(/C=C2\SC(=S)N(NS(=O)(=O)c3ccc(C)cc3)C2=O)cc1,"inconclusive: 0.224 µM [inhibitor, full curve, poor fit]",–
O=c1cc(O)c2c(=O)n(-c3ccccc3)c3ccccc3c2o1,"inconclusive: 0.631 µM [inhibitor, full curve]",–
Cc1noc(NS(=O)(=O)c2ccc(NC(=O)/C=C/c3ccc(Br)cc3)cc2)c1C,"inconclusive: 35.5 µM [inhibitor, single point]",–
CCS(=O)(=O)N1CCC(C(=O)NCc2cccnc2)CC1,inactive,–
Cc1ccc2c(cnn2C(=O)CCCC(=O)NC(C)c2ccccc2)c1 (stereo not drawn),"inconclusive: 6.31 µM [inhibitor, single point]",–

# Whole records, quoted from the list. Values in the order: Potency	activity change, negative = inhibition
# `Cc1ccc(/C=N/n2c(-c3ccncc3)n[nH]c2=S)cc1` as listed: inconclusive: 39.8 µM [inhibitor, single point]	–
# `COc1ccc(OCc2cc(C(=O)N3CCC(c4ccccc4)CC3)no2)c(Cl)c1` as listed: inconclusive: 20 µM [inhibitor, single point]	–

# 3 compounds already listed, sorted by SMILES length, rising:
SMILES,Potency,"activity change, negative = inhibition"
CCOCCc1nnc(NC(=O)Cc2ccccc2)s1,"inconclusive: 0.126 µM [inhibitor, full curve, poor fit]",–
O=c1cc(O)c2c(=O)n(-c3ccccc3)c3ccccc3c2o1,"inconclusive: 0.631 µM [inhibitor, full curve]",–
COc1ccc(/C=C(/NC(=O)c2ccccc2OC)C(=O)Nc2ccc(C(=O)O)cc2)cc1,"inconclusive: 7.08 µM [inhibitor, full curve, poor fit]",–

# Following part:

SMILES,Potency,"activity change, negative = inhibition"
COCCn1c(=S)[nH]c2ccc(N(C)C)cc2c1=O,"inconclusive: 35.5 µM [inhibitor, single point]",–
O=C1CC(c2ccsc2)c2ccc3ccccc3c2N1 (stereo not drawn),inactive,–
C=CCOC(=O)C1=C(C)NC(=S)NC1c1cccs1 (stereo not drawn),"inconclusive: 31.6 µM [inhibitor, single point]",–
O=C(CCc1ccccn1)N1CCCC(Nc2ccc(F)cc2)C1 (stereo not drawn),inactive,–
N[C@@H](Cc1cnc[nH]1)C(=O)O,"inconclusive: 39.8 µM [inhibitor, single point]",–
O=c1nc(/C=C/c2cc([N+](=O)[O-])ccc2Cl)cc(C(F)(F)F)[nH]1,–,inconclusive: -91.2% [inhibitor] [at 0.501 µM]
Cc1ccc(C(=O)Nc2ncccc2O)o1,inactive,–
CCCCCCN(CCCCCC)C(=O)Cc1c(-c2ccc(F)cc2)[nH]c2ccccc12,"inconclusive: 39.8 µM [inhibitor, single point]",–
CCOc1ccc(CCNC(=O)CCc2nnc3ccc(N4CCCCC4)nn23)cc1OCC,"inconclusive: 3.16 µM [inhibitor, partial curve, poor fit]",–
c1ccc(CN2CCN(c3ncnc4c3[nH]c3ccccc34)CC2)cc1,"inconclusive: 0.562 µM [inhibitor, single point]",–
CC(=O)N1CCN(C(=S)c2ccc(N(C)C)cc2)CC1,inactive,–
Cc1nn(-c2ccccc2[N+](=O)[O-])c(=O)c2ccccc12,"inconclusive: 7.08 µM [inhibitor, single point]",–
N=C(N)SCCc1cnc[nH]1,"inconclusive: 39.8 µM [inhibitor, single point]",–
Cc1cccc(C(=O)N2CCN(c3ccc(N4CCOCC4)nn3)CC2)c1,"inconclusive: 39.8 µM [inhibitor, single point]",–
O=C(CCNS(=O)(=O)c1ccc(Br)cc1)NC1CCCCC1,"inconclusive: 7.08 µM [inhibitor, single point]",–
Cc1cc(=O)oc2c(CN(CC(C)C)CC(C)C)c(O)ccc12,"inconclusive: 31.6 µM [inhibitor, single point]",–
Cc1cccc(C2=NNC(=O)C(c3ccc(Cl)cc3)C2)c1 (stereo not drawn),"inconclusive: 0.708 µM [inhibitor, full curve, poor fit]",–
C=CCn1c(SCC(=O)NCc2ccco2)nnc1-c1ccc2ccccc2n1,"inconclusive: 31.6 µM [inhibitor, single point]",–
COc1cc(N2C(=O)C=CC2=O)c(OC)cc1Cl,"inconclusive: 31.6 µM [inhibitor, partial curve]",–
O=C(c1ccc(Cl)cc1)N1N=CCC1(O)c1ccc(Cl)cc1 (stereo not drawn),"inconclusive: 39.8 µM [inhibitor, single point]",–
NNC(=O)c1[nH]c2ccc([N+](=O)[O-])cc2c1-c1ccccc1,inactive,–
CCCC(=O)N(CCc1ccc(OC)cc1)Cc1nc2ccccc2c(=O)[nH]1,"inconclusive: 39.8 µM [inhibitor, single point]",–
